These are yes or no findings as the source states them, for the method shown. Binding seen in cells or lysates may run through a third protein. A yes stands for co-enrichment or nearness to the bait. Other partners may have been found.
Molecular target: HA-tagged WT CDPK1 complement (cWT), Ca2+-dependent protein kinase 1 (Toxoplasma gondii) (UniProt Q9BJF5)
Experiment: affinity purification with mass spectrometry; anti-HA magnetic beads, 1 hr rotating at room temperature; hypotonic lysate (10 mM HEPES pH 7.5, no detergent) brought to 150 mM NaCl; parasites treated with auxin to deplete endogenous mAID-tagged CDPK1; cWT and cMut against untagged TIR1 control; DIA-MS, n = 2

Amino acid sequences for entries named in this document (tags omitted). A change or cut given only in a name is not applied to a line headed by its entry.
UniProt Q9BJF5: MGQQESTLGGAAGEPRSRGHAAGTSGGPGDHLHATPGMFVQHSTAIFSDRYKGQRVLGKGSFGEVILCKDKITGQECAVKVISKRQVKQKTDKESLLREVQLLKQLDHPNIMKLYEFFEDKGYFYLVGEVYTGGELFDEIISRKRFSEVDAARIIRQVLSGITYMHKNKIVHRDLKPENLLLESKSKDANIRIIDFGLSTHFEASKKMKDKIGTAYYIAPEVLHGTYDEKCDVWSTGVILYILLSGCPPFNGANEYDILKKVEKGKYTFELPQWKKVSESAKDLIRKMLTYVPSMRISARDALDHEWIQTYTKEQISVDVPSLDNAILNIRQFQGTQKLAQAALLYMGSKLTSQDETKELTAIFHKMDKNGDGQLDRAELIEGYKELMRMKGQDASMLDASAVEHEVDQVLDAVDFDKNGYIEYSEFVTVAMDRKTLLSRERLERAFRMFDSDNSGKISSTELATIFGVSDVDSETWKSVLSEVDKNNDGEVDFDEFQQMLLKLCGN
UniProt A0A125YK01: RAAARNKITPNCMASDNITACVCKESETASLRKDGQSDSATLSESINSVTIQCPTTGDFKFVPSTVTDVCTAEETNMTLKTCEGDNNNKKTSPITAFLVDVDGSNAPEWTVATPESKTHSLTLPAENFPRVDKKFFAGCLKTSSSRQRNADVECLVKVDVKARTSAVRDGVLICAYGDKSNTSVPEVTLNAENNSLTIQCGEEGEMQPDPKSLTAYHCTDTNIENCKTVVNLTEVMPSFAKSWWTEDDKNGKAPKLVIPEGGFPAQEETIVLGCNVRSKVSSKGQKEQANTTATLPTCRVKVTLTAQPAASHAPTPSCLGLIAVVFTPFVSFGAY
UniProt Q969A8: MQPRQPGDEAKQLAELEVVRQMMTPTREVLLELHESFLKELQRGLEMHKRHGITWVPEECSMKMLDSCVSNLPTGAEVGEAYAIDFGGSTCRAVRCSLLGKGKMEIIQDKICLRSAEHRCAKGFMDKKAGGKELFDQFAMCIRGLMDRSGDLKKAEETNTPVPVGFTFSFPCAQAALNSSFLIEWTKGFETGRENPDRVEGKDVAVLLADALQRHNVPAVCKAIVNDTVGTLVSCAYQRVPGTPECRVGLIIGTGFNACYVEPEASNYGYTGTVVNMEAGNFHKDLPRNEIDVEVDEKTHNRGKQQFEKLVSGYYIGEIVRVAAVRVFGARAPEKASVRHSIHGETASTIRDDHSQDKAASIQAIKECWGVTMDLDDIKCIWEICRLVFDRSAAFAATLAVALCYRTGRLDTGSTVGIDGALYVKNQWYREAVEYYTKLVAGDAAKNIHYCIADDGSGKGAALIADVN

| Substance | binding |
| --- | --- |
| SRS36D (TGGT1_292280) (from UniProt A0A125YK01) | binds |
| hexokinase (TGGT1_265450) (from UniProt Q969A8) (enzyme) | binds |

Reference: PMC10629828
